Further values from the same series stand in other lists. Where a SMILES comes first, the peptide text is derived from it. Bridges are numbered along the chain shown (N, C = ends). [ ]: non-standard residue; d: D form. The star is where a group is joined. Heptanoyl(5-Me) = CCC(C)CCCC(=O)*; Dab = NCC[C@H](N)C(=O)O
Experiments:
Conditions in all cases: growth mode: biofilm, 24 h; exposure time: 24 h
[1] = compound: T1, NC[C@H]1O[C@H](O[C@H]2[C@H](O)[C@@H](O[C@H]3O[C@H](CO)[C@@H](O)[C@H](N)[C@H]3O)[C@H](N)C[C@@H]2N)[C@H](N)C[C@@H]1O [tobramycin]; assay: minimum concentration eradicating biofilm below detection limit (MCK-E); higher = more biofilm tolerance
Experimental: (§1)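 Clinical P. aeruginosa isolates were grown as static biofilms for 24 h at 37 °C in LB in half-area 96-well plates, then exposed for 24 h to tobramycin at 1, 4, 16, 64, 256 or […]. Surviving CFU were counted by spotting serial dilutions. MCK is the lowest tested concentration giving the stated log reduction in CFU versus an untreated control; '>1024' means the reduction was not reached at the top dose, and 1 is the lowest dose tested (≤1).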

[2] = compound: T2, CCC(C)CCCC(=O)N[C@@H](CCN)C(=O)N[C@H](C(=O)N[C@@H](CCN)C(=O)N[C@H]1CCNC(=O)[C@H]([C@@H](C)O)NC(=O)[C@H](CCN)NC(=O)[C@H](CCN)NC(=O)[C@H](CC(C)C)NC(=O)[C@@H](CC(C)C)NC(=O)[C@H](CCN)NC1=O)[C@@H](C)O [colistin]; assay: as above
Experimental: as §1, with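 “colistin” for “tobramycin”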

[3] = compound: T1, tobramycin; assay: minimum concentration of killing, 2-log CFU reduction of biofilm (MCK99); higher = more biofilm tolerance
Experimental: as §1

[4] = compound: T2, colistin; assay: minimum concentration of killing, 1-log CFU reduction of biofilm (MCK90); higher = more biofilm tolerance
Experimental: as §1, with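 “colistin” for “tobramycin”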

[5] = compound: T1, tobramycin; assay: as above
Experimental: as §1

[6] = compound: T2, colistin; assay: minimum concentration of killing, 2-log CFU reduction of biofilm (MCK99); higher = more biofilm tolerance
Experimental: as §1, with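 “colistin” for “tobramycin”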

[7] = compound: T2, colistin; assay: minimum concentration of killing, 4-log CFU reduction of biofilm (MCK99.99); higher = more biofilm tolerance
Experimental: as §1, with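 “colistin” for “tobramycin”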

[8] = compound: T1, tobramycin; assay: as above
Experimental: as §1

Row | Test System | minimum concentration eradicating biofilm below detection limit [1] | minimum concentration eradicating biofilm below detection limit [2] | minimum concentration of killing [3] | minimum concentration of killing [4] | minimum concentration of killing [5] | minimum concentration of killing [6] | minimum concentration of killing [7] | minimum concentration of killing [8]
1 | Pseudomonas aeruginosa clinical isolate CH2734 | 256 µg/mL | 256 µg/mL | 64 µg/mL | 64 µg/mL | ≤ 1 µg/mL | 256 µg/mL | 256 µg/mL | 256 µg/mL
2 | Pseudomonas aeruginosa clinical isolate CH2735 | 256 µg/mL | 256 µg/mL | 4 µg/mL | 64 µg/mL | ≤ 1 µg/mL | 64 µg/mL | 256 µg/mL | 256 µg/mL
3 | Pseudomonas aeruginosa clinical isolate CH2747 | 64 µg/mL | 256 µg/mL | ≤ 1 µg/mL | 64 µg/mL | ≤ 1 µg/mL | 64 µg/mL | 256 µg/mL | 16 µg/mL
4 | Pseudomonas aeruginosa clinical isolate CH2756 | 256 µg/mL | 256 µg/mL | 64 µg/mL | 256 µg/mL | ≤ 1 µg/mL | 256 µg/mL | 256 µg/mL | 64 µg/mL
5 | Pseudomonas aeruginosa clinical isolate CH2764 | 1020 µg/mL | 256 µg/mL | 4 µg/mL | ≤ 1 µg/mL | 4 µg/mL | 256 µg/mL | 256 µg/mL | 256 µg/mL
6 | Pseudomonas aeruginosa clinical isolate CH2824 | 64 µg/mL | 256 µg/mL | ≤ 1 µg/mL | 64 µg/mL | ≤ 1 µg/mL | 64 µg/mL | 256 µg/mL | 64 µg/mL
7 | Pseudomonas aeruginosa clinical isolate CH2829 | 256 µg/mL | 256 µg/mL | 64 µg/mL | 16 µg/mL | 64 µg/mL | 64 µg/mL | 256 µg/mL | 256 µg/mL
8 | Pseudomonas aeruginosa clinical isolate CH2848 | 256 µg/mL | 256 µg/mL | 16 µg/mL | 64 µg/mL | 16 µg/mL | 256 µg/mL | 256 µg/mL | 64 µg/mL
9 | Pseudomonas aeruginosa clinical isolate CH2860 | 256 µg/mL | 256 µg/mL | 64 µg/mL | 16 µg/mL | 64 µg/mL | 256 µg/mL | 256 µg/mL | 256 µg/mL
10 | Pseudomonas aeruginosa clinical isolate CH2875 | 1020 µg/mL | 256 µg/mL | 4 µg/mL | 16 µg/mL | ≤ 1 µg/mL | 256 µg/mL | 256 µg/mL | 1020 µg/mL
11 | Pseudomonas aeruginosa clinical isolate CH2922 | 256 µg/mL | 256 µg/mL | 4 µg/mL | 256 µg/mL | 4 µg/mL | 256 µg/mL | 256 µg/mL | 64 µg/mL
12 | Pseudomonas aeruginosa clinical isolate CH2939 | 1020 µg/mL | 256 µg/mL | 64 µg/mL | 64 µg/mL | 4 µg/mL | 256 µg/mL | 256 µg/mL | 256 µg/mL
13 | Pseudomonas aeruginosa clinical isolate CH3177 | 256 µg/mL | 256 µg/mL | 64 µg/mL | 64 µg/mL | ≤ 1 µg/mL | 64 µg/mL | 256 µg/mL | 256 µg/mL
14 | Pseudomonas aeruginosa clinical isolate CH3290 | > 1020 µg/mL | 256 µg/mL | 1020 µg/mL | 64 µg/mL | 256 µg/mL | 256 µg/mL | 256 µg/mL | 1020 µg/mL
15 | Pseudomonas aeruginosa clinical isolate CH3325 | 256 µg/mL | 256 µg/mL | 64 µg/mL | 256 µg/mL | 4 µg/mL | 256 µg/mL | 256 µg/mL | 256 µg/mL
16 | Pseudomonas aeruginosa clinical isolate CH3466 | 256 µg/mL | 256 µg/mL | 256 µg/mL | 256 µg/mL | 16 µg/mL | 256 µg/mL | 256 µg/mL | 256 µg/mL
17 | Pseudomonas aeruginosa clinical isolate CH3484 | 256 µg/mL | 256 µg/mL | 64 µg/mL | 256 µg/mL | 16 µg/mL | 256 µg/mL | 256 µg/mL | 64 µg/mL
18 | Pseudomonas aeruginosa clinical isolate CH3549 | 1020 µg/mL | 256 µg/mL | 64 µg/mL | 64 µg/mL | ≤ 1 µg/mL | 256 µg/mL | 256 µg/mL | 256 µg/mL
19 | Pseudomonas aeruginosa clinical isolate CH3797 | > 1020 µg/mL | 256 µg/mL | 1020 µg/mL | 64 µg/mL | 16 µg/mL | 256 µg/mL | 256 µg/mL | 1020 µg/mL
20 | Pseudomonas aeruginosa clinical isolate CH3882 | > 1020 µg/mL | 256 µg/mL | 16 µg/mL | 16 µg/mL | ≤ 1 µg/mL | 256 µg/mL | 256 µg/mL | 256 µg/mL

Row | Test System | minimum concentration eradicating biofilm below detection limit [1] | minimum concentration eradicating biofilm below detection limit [2] | minimum concentration of killing [3] | minimum concentration of killing [4] | minimum concentration of killing [5] | minimum concentration of killing [6] | minimum concentration of killing [7] | minimum concentration of killing [8]
21 | Pseudomonas aeruginosa clinical isolate CH3906 | 16 µg/mL | 256 µg/mL | 4 µg/mL | 256 µg/mL | ≤ 1 µg/mL | 256 µg/mL | 256 µg/mL | 16 µg/mL
22 | Pseudomonas aeruginosa clinical isolate CH4083 | 1020 µg/mL | 256 µg/mL | 4 µg/mL | 256 µg/mL | 4 µg/mL | 256 µg/mL | 256 µg/mL | 256 µg/mL
23 | Pseudomonas aeruginosa clinical isolate CH4418 | 1020 µg/mL | 256 µg/mL | 64 µg/mL | 256 µg/mL | 64 µg/mL | 256 µg/mL | 256 µg/mL | 1020 µg/mL
24 | Pseudomonas aeruginosa clinical isolate CH4438 | 1020 µg/mL | 256 µg/mL | 16 µg/mL | 256 µg/mL | 16 µg/mL | 256 µg/mL | 256 µg/mL | 1020 µg/mL
25 | Pseudomonas aeruginosa clinical isolate CH4443 | > 1020 µg/mL | 256 µg/mL | > 1020 µg/mL | 256 µg/mL | > 1020 µg/mL | 256 µg/mL | 256 µg/mL | > 1020 µg/mL
26 | Pseudomonas aeruginosa clinical isolate CH4446 | 256 µg/mL | 256 µg/mL | 64 µg/mL | 64 µg/mL | 16 µg/mL | 64 µg/mL | 256 µg/mL | 256 µg/mL
27 | Pseudomonas aeruginosa clinical isolate CH4489 | 1020 µg/mL | 64 µg/mL | 16 µg/mL | 16 µg/mL | 16 µg/mL | 64 µg/mL | 64 µg/mL | 1020 µg/mL
28 | Pseudomonas aeruginosa clinical isolate CH4509 | 256 µg/mL | 256 µg/mL | 64 µg/mL | 256 µg/mL | 64 µg/mL | 256 µg/mL | 256 µg/mL | 256 µg/mL
29 | Pseudomonas aeruginosa clinical isolate CH4520 | 64 µg/mL | 256 µg/mL | 4 µg/mL | 16 µg/mL | ≤ 1 µg/mL | 256 µg/mL | 256 µg/mL | 64 µg/mL
30 | Pseudomonas aeruginosa clinical isolate CH4528 | 1020 µg/mL | 256 µg/mL | 256 µg/mL | 256 µg/mL | 4 µg/mL | 256 µg/mL | 256 µg/mL | 256 µg/mL
31 | Pseudomonas aeruginosa clinical isolate CH4549 | 256 µg/mL | 256 µg/mL | 64 µg/mL | 256 µg/mL | 16 µg/mL | 256 µg/mL | 256 µg/mL | 256 µg/mL
32 | Pseudomonas aeruginosa clinical isolate CH4584 | > 1020 µg/mL | 256 µg/mL | 256 µg/mL | 256 µg/mL | 256 µg/mL | 256 µg/mL | 256 µg/mL | 256 µg/mL
33 | Pseudomonas aeruginosa clinical isolate CH4591 | 256 µg/mL | 256 µg/mL | 16 µg/mL | 16 µg/mL | 4 µg/mL | 64 µg/mL | 256 µg/mL | 64 µg/mL
34 | Pseudomonas aeruginosa clinical isolate CH4602 | 256 µg/mL | 256 µg/mL | 16 µg/mL | 64 µg/mL | 16 µg/mL | 256 µg/mL | 256 µg/mL | 64 µg/mL
35 | Pseudomonas aeruginosa clinical isolate CH4634 | > 1020 µg/mL | 256 µg/mL | 1020 µg/mL | 256 µg/mL | 64 µg/mL | 256 µg/mL | 256 µg/mL | > 1020 µg/mL
36 | Pseudomonas aeruginosa clinical isolate CH4684 | 256 µg/mL | 256 µg/mL | ≤ 1 µg/mL | 64 µg/mL | ≤ 1 µg/mL | 64 µg/mL | 256 µg/mL | 64 µg/mL
37 | Pseudomonas aeruginosa clinical isolate CH4703 | > 1020 µg/mL | 64 µg/mL | > 1020 µg/mL | 16 µg/mL | 1020 µg/mL | 16 µg/mL | 64 µg/mL | > 1020 µg/mL
38 | Pseudomonas aeruginosa clinical isolate CH4755 | 256 µg/mL | 256 µg/mL | 64 µg/mL | 256 µg/mL | 64 µg/mL | 256 µg/mL | 256 µg/mL | 256 µg/mL
39 | Pseudomonas aeruginosa clinical isolate CH4757 | 64 µg/mL | 256 µg/mL | 16 µg/mL | 64 µg/mL | ≤ 1 µg/mL | 64 µg/mL | 256 µg/mL | 64 µg/mL
40 | Pseudomonas aeruginosa clinical isolate CH4766 | 1020 µg/mL | 256 µg/mL | 64 µg/mL | 256 µg/mL | 64 µg/mL | 256 µg/mL | 256 µg/mL | 256 µg/mL

From the supplement of paper PMC8920030
